The values that follow come from publication PMC7470953.

What all share (test): proximity labelling; BioID in procyclic T. brucei with C-terminal BirA* fusions; biotinylated proteins purified from mitochondrial fraction; LC-MS/MS; proximity network
Assay [1] has as its target KPAF5, BirA* ligase fusion (Trypanosoma brucei).
Assay [2] deals with RESC5, BirA* ligase fusion (Trypanosoma brucei).
Assay [3] has as its target RESC13 (RGG2), BirA* ligase fusion (Trypanosoma brucei).

No constants are given. Whether binding was seen depends on the method and setting. In cells and extracts the contact can be indirect. These calls come from enrichment with a bait or labelling near it, and not all partners need be listed. Where a sequence is shown, tags or fusion partners need not be part of it.

B1: KPAP1 poly(A) polymerase, BirA* ligase fusion (enzyme, UniProt B3FB38 1-527)
chain: MRKFSAFRSGNTGVKRCITLPWKSSLPPKSDSQWEGLGKSVVRMALASDTGRSAFDECSTARQQLETLVQSTGYDASVFAFGGIVVMGLLEVGGDADFVGVADVEPGVAEAGEIVSRLSREMRRLGLKSSALPKARVPVIKVDRVSKSLPGTPLHHLSTCGIFQFTRQMNNNECISFKSRMEENFGAVNTEWSNNQQFSTVEFSSSSALVAALTEVKRHEGVDIPLRLPVDPRNGPELYRLSFDFCFSSVGLRNSYLLSDVLSKYVFSRHLLLLIKRWGRSSGVINSIDGLLASYALTVMCAHFLIKVGVIPKVSTLRSADEPQLLPPFPDYRPLHDGEDCDLAELGFLTAAFFEYYGAVFDYGKNVVCTTNINLLKKTMRWEKSPGTESGRPPFFEFAIKDPYGLDNIGRNLDSEATEYVRSAHSAALATLLQERGDPDFTVNIITKSPPRPARRSRTLASRGIASATYSSDQLEARHLLKKVAFHERRKSMERFGARAARHTEKQRVVSNVAKDVLGWIKCDNHQ
Turning to B1, the binding result in assay [1] is listed as “binds”.

B2: MERS1 pyrophosphohydrolase, BirA* ligase fusion (enzyme, UniProt B6SBM0 1-395)
chain: MRKQLFFTLARPCVAVGRRFISGDNKSIDSSAFISDDDALRGELASALDTEGHALPFDVHLQQPHSSGDGTAGDTSTIQLEKLSHPPARFDLLTNSFVYKWQTKAALARKVSGPMREWAAELKYRTGVHIELEPTYPERLSENAVKGSGSDDGDGTQWGAYETADDVDITVYLFGSERGIFNCHKLMEAAIQQDPVYVRLGIFRRLANSSEVEWLMLRRINRELRPPDIPPISLKLPGKWTLLYERYKEAAIRTLWEETGITVDASNVYPTGHLYQTVPQYYWRVPVRYFVAEVPSDIRVEGPQVVPLQYMRNWDARLLRQSPDPIDRAWAQLADPATGCAWMKASMIDQLQKPLRGDNYMAIRYTPPPYSNLQEVVGLGDGSITPSTGNGEDAS
For B2, the binding result in assay [2] and in assay [3] was “binds” each time.
